No constants are given. Whether binding was seen depends on the method and setting. Some results given as binding are weak or reduced against the parent protein; the word gives no strength. One block for each binder: values may come before it.
What was measured:
[1] = biological target: Amyloid Beta (antigen of the Amyloid Beta ELISA) (UniProt P05067); test: Amyloid Beta ELISA, antibodies purified from NS0 lines, A405 against ng/well
[2] = biological target: amyloid plaques of brains from AD disease patients (human) (UniProt P05067); test: immunohistochemistry, paraffin sections of human brain pretreated with formic acid
[3] = biological target: Amyloid Beta (antigen of the Amyloid Beta ELISA) (UniProt P05067); test: Amyloid Beta ELISA, purified antibody, A405 against ng/well
[4] = biological target: Amyloid Beta (antigen of the Amyloid Beta ELISA) (UniProt P05067); test: Amyloid Beta ELISA, antibody purified from stable NS0 cell lines
[5] = biological target: Amyloid Beta (antigen of the Amyloid Beta ELISA) (UniProt P05067); test: ELISA for binding to Amyloid Beta, conditioned medium from transient transfection
[6] = biological target: diffuse plaques in non-demented pre-AD patients (human) (UniProt P05067); test: immunohistochemistry on human brain sections
[7] = biological target: Amyloid in cerebral amyloid angiopathy (CAA) (human) (UniProt P05067); test: immunohistochemistry on human brain sections
[8] = biological target: Amyloid Beta (antigen of the Amyloid Beta ELISA) (UniProt P05067); test: Amyloid Beta ELISA, conditioned medium of transient transfection, A405 against ng/well
[9] = biological target: Amyloid Beta (antigen of the Amyloid Beta ELISA) (UniProt P05067); test: Amyloid Beta ELISA, purified antibodies
[10] = biological target: Amyloid Beta (antigen of the Amyloid Beta ELISA) (UniProt P05067); test: Amyloid Beta ELISA, conditioned medium from transient transfection

Protein sequences, listed by entry. Tags and fused reporters are not part of them. Residues count along the entry.
Amyloid Beta (antigen of the Amyloid Beta ELISA) (P05067, residues 672-713): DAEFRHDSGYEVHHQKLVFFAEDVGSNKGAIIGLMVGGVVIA
Amyloid in cerebral amyloid angiopathy (CAA) (P05067, residues 672-711): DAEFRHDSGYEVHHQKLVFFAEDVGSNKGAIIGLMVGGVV

- binding [9]: binds
- binding [1]: binds
B2: humanized antibody C2HuVH4/HuVK2 (antibody, human IgG4 S228P, kappa, V domains shown)
VH: EVQLVESGGGLVQPGGSLRLSCAASGFTFSSYGMSWVRQAPGKGLELVASINSNGGSTYYPDSVKGRFTISRDNAKNSLYLQMNSLRAEDTAVYYCASGDYWGQGTTVTVSS
VL: DIVMTQSPLSLPVTPGEPASISCRSSQSLVYSNGDTYLHWYLQKPGQSPQLLIYKVSNRFSGVPDRFSGSGSGTDFTLKISRVEAEDVGVYFCSQSTHVPWTFGQGTKVEIKR

- binding [1]: binds
B3: humanized antibody C2 HuVH2/HuVK3 (antibody, human IgG4 S228P, kappa, V domains shown)
VH: EVQLVESGGGLVQPGGSLRLSCAASGFTFSSYGMSWVRQAPGKGLEWVASINSNGGSTYYPDSVKGRFTISRDNAKNSLYLQMNSLRAEDTAVYYCASGDYWGQGTTVTVSS
VL: DIVMTQSPLSLPVTPGEPASISCRSSQSLVYSNGDTYLHWYLQKPGQSPKLLIYKVSNRFSGVPDRFSGSGSGTDFTLKISRVEAEDVGVYYCSQSTHVPWTFGQGTKVEIKR

- binding [9]: binds
- binding [1]: binds
B4: humanized antibody C2 HuVH2/HuVK4 (antibody, human IgG4 S228P, kappa, V domains shown)
VH: EVQLVESGGGLVQPGGSLRLSCAASGFTFSSYGMSWVRQAPGKGLEWVASINSNGGSTYYPDSVKGRFTISRDNAKNSLYLQMNSLRAEDTAVYYCASGDYWGQGTTVTVSS
VL: DIVMTQSPLSLPVTPGEPASISCRSSQSLVYSNGDTYLHWYLQKPGQSPKLLIYKVSNRFSGVPDRFSGSGSGTDFTLKISRVEAEDVGVYFCSQSTHVPWTFGQGTKVEIKR

Second part, the binder before the results:

B1: chimeric antibody C2 ChVH AF/ChVK (antibody, human IgG4 S228P, kappa, V domains shown)
VH: EVQLVESGGGLVQPGGSLKLSCAASGFTFSSYGMSWVRQTPDKRLELVASINSNGGSTYYPDSVKGRFTISRDNAKNTLYLQMSSLKSEDTAMYYCASGDYWGQGSTLTVSS
VL: DVVMTQTPLSLPVSLGDQASISCRSSQSLVYSNGDTYLHWYLQKPGQSPKLLIYKVSNRFSGVPDRFSGSGSGTDFTLKISRVEAEDLGVYFCSQSTHVPWTFGGGTKLEIKR
- binding [1]: binds
- binding [2]: binds
- binding [3]: binds
- binding [4]: binds
- binding [5]: binds
- binding [6]: binds
- binding [7]: binds
- binding [8]: binds

B5: humanized antibody C2 HuVH2/HuVK1 (antibody, human IgG4 S228P, kappa, V domains shown)
VH: EVQLVESGGGLVQPGGSLRLSCAASGFTFSSYGMSWVRQAPGKGLEWVASINSNGGSTYYPDSVKGRFTISRDNAKNSLYLQMNSLRAEDTAVYYCASGDYWGQGTTVTVSS
VL: DIVMTQSPLSLPVTPGEPASISCRSSQSLVYSNGDTYLHWYLQKPGQSPQLLIYKVSNRFSGVPDRFSGSGSGTDFTLKISRVEAEDVGVYYCSQSTHVPWTFGQGTKVEIKR
- binding [9]: binds
- binding [1]: binds

B6: VK-R antibody (mC2 VK-R with chimeric C2 VH) (antibody, V domains shown)
VH: EVQLVESGGGLVQPGGSLKLSCAASGFTFSSYGMSWVRQTPDKRLELVASINSNGGSTYYPDSVKGRFTISRDNAKNTLYLQMSSLKSEDTAMYYCASGDYWGQGSTLTVSS
VL: DVVMTQTPLSLPVSLGDQASISCRSSQSLVYSNGDTYLHWYLQKPGQSPKLLIYRVSNRFSGVPDRFSGSGSGTDFTLKISRVEAEDLGVYFCSQSTHVPWTFGGGTKLEIK
- binding [10]: binds
- binding [8]: binds

B7: VK-S antibody (mC2 VK-S with chimeric C2 VH) (antibody, V domains shown)
VH: EVQLVESGGGLVQPGGSLKLSCAASGFTFSSYGMSWVRQTPDKRLELVASINSNGGSTYYPDSVKGRFTISRDNAKNTLYLQMSSLKSEDTAMYYCASGDYWGQGSTLTVSS
VL: DVVMTQTPLSLPVSLGDQASISCRSSQSLVYSNGDTYLHWYLQKPGQSPKLLIYKVSSRFSGVPDRFSGSGSGTDFTLKISRVEAEDLGVYFCSQSTHVPWTFGGGTKLEIK
- binding [10]: binds
- binding [8]: binds

B8: C2 HuVH AF version 2 combined with the chimeric C2 kappa chain (antibody, V domains shown)
VH: EVQLVESGGGLVQPGGSLRLSCAASGFTFSSYGMSWVRQAPGKGLEWVASINSNGGSTYYPDSVKGRFTISRDNAKNSLYLQMNSLRAEDTAVYYCASGDYWGQGTTVTVSS
VL: DVVMTQTPLSLPVSLGDQASISCRSSQSLVYSNGDTYLHWYLQKPGQSPKLLIYKVSNRFSGVPDRFSGSGSGTDFTLKISRVEAEDLGVYFCSQSTHVPWTFGGGTKLEIK
- binding [10]: binds

From US20160244514A1
